EP4137518A1 (Inhibrx, Inc., dated 2023)
These are yes or no findings as the source states them, for the method shown. Some results given as binding are weak or reduced against the parent protein; the word gives no strength.

Assays:
[1] = biological target: cynomolgus monkey CD47 on cynomolgus B-cells (cynomolgus monkey); test: flow cytometry on CD20 positive cynomolgus B-cells, normalized median FL1
[2] = biological target: cynomolgus monkey CD47 on cynomolgus B-cells (cynomolgus monkey); test: flow cytometry on cynomolgus monkey B-cells (Figure 5)

binding [1]: binds | binding [2]: binds
B1: 2A1 antibody (murine) (antibody, V domains shown)
VH: EVQLQQSGAELVRSGASVKLSCTASGFNIKDYYLHWVKQRPEQGLEWIGWIDPDNGDTEFAPKFQGKATMTADTSSNTAYLQLSSLTSEDTAVYYCNAAYGSSSYPMDYWGQGTSVTV
VL: DIKMTQSPSSLYASLGERVTITCKASQDIHRYLSWFQQKPGKSPKILIYRANRLVDGVPSRFSGSGSGQDYSLTISSLEYEDMGIYYCLQYDEFPYTFGGGTKLEMK
